## Results of single-concentration screens

Data taken from ChEMBL document CHEMBL3988442, “University of Dundee, Small-Polar-MMV Screening Library” (2021).

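Phenotypic screen: M. tuberculosis growth, glucose 7H9 medium, 3 days; the read-out is not stated. Concentration: 50 µM. Higher reads as more growth inhibition (inferred: compounds with an IC50 in retests scored well above the rest). Of about 69,000 compounds tested this way, about 760 (1.1%) reached 50% or more in at least one test.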

Each number is a percent effect as filed.
The controls that fix the scale are not given in the record; negative values are as filed.
Compounds were drawn at random from those tested, without regard to their results.
Two or more numbers in one place are separate tests of the same structure; such repeats can differ widely.

structure: Cn1cnnc1CNC(=O)C1CCCN(Cc2cccc(F)c2)C1 (stereo not drawn)
Percent Effect: -2.889 and -24.7

structure: CCn1nc(C)c(C(=O)N2C[C@@H](CN(C)C)[C@@H](CO)C2)c1C
Percent Effect: -5.027

structure: COc1cc(C(=O)Nc2nc(C)no2)ccc1C
Percent Effect: 73.9

structure: Cc1nn(CCO)c(C)c1CNC1CCCCc2ccccc21 (stereo not drawn)
Percent Effect: 25.26

structure: CS(=O)(=O)NCCNC(=O)Cc1ccc(Br)s1
Percent Effect: 0.1478

structure: CN1CC(=O)N(c2cccc(F)c2)CC12CCN(CCO)C2.O=C(O)C(F)(F)F.O=C(O)C(F)(F)F (stereo not drawn)
Percent Effect: 29.69

structure: CCNc1ncc(C(=O)N(C)Cc2nc3ccccc3n2C)cn1
Percent Effect: -21.73

structure: CC(C)N1C(=O)CN(CCCO)CC1(C)C
Percent Effect: 1.166 and -5.133

structure: COc1ccc(OCCN2CCC(c3ccnn3CCO)CC2)cc1
Percent Effect: -1.669

structure: Cn1cccc1C(=O)Nc1cc(F)ccc1OCC1CCCO1 (stereo not drawn)
Percent Effect: 12

structure: O=C1CCC2(CCCN(C(=O)c3ccc[nH]3)C2)CN1CCc1c[nH]cn1 (stereo not drawn)
Percent Effect: -2.498 and -3.4

structure: N#Cc1ccccc1C(=O)N1CCC2(CC(=O)NC2=O)C1 (stereo not drawn)
Percent Effect: -40.9

structure: COCCSCC(=O)NCc1ccc(N(C)C)nc1
Percent Effect: 6.133

structure: CCN1Cc2nc(OC)c(CNC(=O)CCC3CCCC3)cc2C1=O
Percent Effect: 10.13

structure: COc1ccc(-c2n[nH]cc2CN(C)Cc2nnc(C)o2)c(F)c1
Percent Effect: 13

structure: COCCC(C)NC(=O)N1CCC(n2ccc(C(F)(F)F)n2)CC1 (stereo not drawn)
Percent Effect: 1.646

structure: O=C(Cc1ccc2c(c1)CCC2)NC1CCN(Cc2ccccc2)CC1
Percent Effect: 10.53 and 0.3403

structure: CNC(=O)C1Cn2ccnc2C2(CCN(C(=O)NC3CCCC3)CC2)O1 (stereo not drawn)
Percent Effect: -38.61

structure: CCN1CCCC(NC(=O)CCn2c(C(F)F)cc3cccnc32)C1 (stereo not drawn)
Percent Effect: 27.19

structure: N#Cc1ccc(N2CCN(c3ncccn3)CC2)c(C(F)(F)F)c1
Percent Effect: 0.4667 and 13.76

structure: Cc1cc(C)n(CC(=O)N2CCC(c3nc(C(C)C)no3)CC2)n1
Percent Effect: 26.66

structure: Cn1ccnc1C1c2nc[nH]c2CCN1Cc1cccnc1 (stereo not drawn)
Percent Effect: 10 and -28.14

structure: CCOc1ccc(C(=O)CCC(=O)N(C)Cc2cnccn2)cc1C
Percent Effect: -28.55

structure: O=C(O)C(F)(F)F.O=C(O)C(F)(F)F.[H][C@]12C[C@@H](CN3CCCC3)N(c3nccs3)[C@@]1([H])CCN(C(=O)CC)C2
Percent Effect: 0.797

structure: Cc1oc(-c2ccc(F)cc2F)nc1CN1C[C@@H](C)O[C@@H](C)C1
Percent Effect: -11.13

structure: CCN(Cc1ccco1)C(=O)NCC(c1cccs1)N(C)C (stereo not drawn)
Percent Effect: -1.082

structure: Cc1cc(Br)c(O)c(-c2nc(N3CCOCC3)sc2C)c1
Percent Effect: -7.03

structure: O=C(O)C(F)(F)F.[H][C@]12CCN(Cc3nccs3)C[C@@]1([H])OCCN(C(=O)c1ccco1)C2
Percent Effect: -4.303

structure: O=C(Nc1ccccn1)N(CCO)Cc1ccccc1Br
Percent Effect: 21.08

structure: CC(C)c1nc(C2CCCN(Cc3nnc(C4CC4)o3)C2)no1 (stereo not drawn)
Percent Effect: -12.33

structure: OC(CN1CCC(c2ccn[nH]2)CC1)c1ccccc1F (stereo not drawn)
Percent Effect: -3.226 and -38.86

structure: CCC(CC)c1cc(CNC(=O)N2CCOC(C)C2)on1 (stereo not drawn)
Percent Effect: 20.24

structure: CN(Cc1ccccc1)C(=O)CN1CCCC(Cn2cncn2)C1 (stereo not drawn)
Percent Effect: 11.47

structure: CC(C)CN1C(=O)C2(CCCC2)NC1c1cccnc1 (stereo not drawn)
Percent Effect: -0.4173 and -27.4

structure: CS(=O)(=O)N1CCCC1c1cccc(Cc2ccccc2F)n1 (stereo not drawn)
Percent Effect: 7.454

structure: C[C@@H](N)C(=O)N1CC2(CCNCC2)c2cc(Cl)ccc21.Cl.Cl
Percent Effect: 26.1

structure: CSc1cccc(NC(=O)N2CCCC(CNC(=O)c3ccco3)C2)c1 (stereo not drawn)
Percent Effect: 23.39

structure: COc1c(C)cnc(CSc2nnc(N)s2)c1C
Percent Effect: 18.63

structure: Cl.O=C(NCCO)c1sc2ncccc2c1C1CNCCO1 (stereo not drawn)
Percent Effect: -23.66

structure: Cc1nccn1-c1cccc(C2CCCN(C3CCCCC3)C2)n1 (stereo not drawn)
Percent Effect: 15.4

structure: Nc1ncccc1C(=O)NCc1cccc(Br)c1
Percent Effect: 7.516

structure: CCC(=O)N1CCN(c2nc(C)nc3c(C)nn(C)c23)CC1
Percent Effect: -5.753

structure: Cc1csc(NC(=O)c2cnc(C3CCCN(C)C3)cn2)n1 (stereo not drawn)
Percent Effect: -31.79

structure: Cc1nc(C2CCCN2C(=O)c2ccc(N(C)C)nn2)no1 (stereo not drawn)
Percent Effect: -6.805

structure: CCn1c(C)nnc1SCCNC(=O)Cn1cnc2ccccc2c1=O
Percent Effect: 20.56

structure: CN(C)CCN1C(=O)CCC12CCN(C(=O)c1cccnc1)CC2.O=C(O)C(F)(F)F.O=C(O)C(F)(F)F
Percent Effect: 14

structure: CCc1nc(Cn2c(=O)n(C)c3ccccc32)no1
Percent Effect: -21.07

structure: Cc1nnn2c1COCC(CNC(=O)c1ccc[nH]1)C2 (stereo not drawn)
Percent Effect: -13.98

structure: CNC(=O)c1cnc(/C=C/c2ccc(OC)c(O)c2)s1
Percent Effect: 2.476

structure: N#CCCN(Cc1ccccn1)Cn1cc(Cl)cn1
Percent Effect: 11.8

structure: Cn1cc(C2CCCN2Cc2csc(-c3ccsc3)n2)cn1 (stereo not drawn)
Percent Effect: 6.38

structure: O=C(O)C(F)(F)F.[H][C@@]12CCN(CC3CCOCC3)C[C@]1([H])O[C@@H](C(=O)N1CCC(C)CC1)C2
Percent Effect: 10.74 and -4.007

structure: Cc1[nH]c2c(F)cccc2c1CC(=O)N1CCCC(N)CC1 (stereo not drawn)
Percent Effect: -3.898 and -4.558

structure: O=C(c1ccc(C2CCCN2)s1)N1CCN(C(=O)N2CCOCC2)CC1 (stereo not drawn)
Percent Effect: -1.986

structure: [H][C@]12CCC[C@@]1(COCc1ccccn1)CN(Cc1ccccn1)C2
Percent Effect: 9.397 and -0.4388

structure: COCCn1c2c(ccc1=O)CCN(C(=O)Cc1cccs1)CC2
Percent Effect: -4.765

structure: CN(CC(=O)Nc1cccnc1)CC1CCCN1c1cccnn1 (stereo not drawn)
Percent Effect: 0.3705 and -5.04

structure: O=C(NCCOc1ccc(F)c(F)c1)NCc1cccc(CO)c1
Percent Effect: 5.929

For reference, 3 entries once more:

{"structure": "Cn1cc(C2CCCN2Cc2csc(-c3ccsc3)n2)cn1", "stereo": "stereo not drawn", "Percent Effect": 6.38}
{"structure": "C[C@@H](N)C(=O)N1CC2(CCNCC2)c2cc(Cl)ccc21.Cl.Cl", "Percent Effect": 26.1}
{"structure": "Cc1cc(C)n(CC(=O)N2CCC(c3nc(C(C)C)no3)CC2)n1", "Percent Effect": 26.66}